Test results from article PMC9367985.
No constants are given. Whether binding was seen depends on the method and setting. In cells and extracts the contact can be indirect. Sequences can lack the tags named with a protein.

Molecular target: A315T^247-414-GFP (C-terminally GFP-tagged truncated TDP-43, residues 247-414, with the ALS-associated A315T mutation) (human) (UniProt Q13148)
Assay: co-IP; HEK293T cells transfected with LUBAC subunits and GFP or A315T^247-414-GFP; lysis in 50 mM Tris-HCl pH 7.5, 150 mM NaCl, 1% Triton X-100; anti-GFP immunoprecipitates on Protein G agarose at 4 °C; immunoblotting

B1: SHARPIN expressed alone (FLAG-tagged LUBAC subunit) (protein, UniProt Q9H0F6 1-387)
chain: MAPPAGGAAAAASDLGSAAVLLAVHAAVRPLGAGPDAEAQLRRLQLSADPERPGRFRLELLGAGPGAVNLEWPLESVSYTIRGPTQHELQPPPGGPGTLSLHFLNPQEAQRWAVLVRGATVEGQNGSKSNSPPALGPEACPVSLPSPPEASTLKGPPPEADLPRSPGNLTEREELAGSLARAIAGGDEKGAAQVAAVLAQHRVALSVQLQEACFPPGPIRLQVTLEDAASAASAASSAHVALQVHPHCTVAALQEQVFSELGFPPAVQRWVIGRCLCVPERSLASYGVRQDGDPAFLYLLSAPREAPATGPSPQHPQKMDGELGRLFPPSLGLPPGPQPAASSLPSPLQPSWSCPSCTFINAPDRPGCEMCSTQRPCTWDPLAAAST
- binding: no binding
